Laboratory results from PMC5543143, “Structural Basis for the Mechanism of ATP-Dependent Acetone Carboxylation” (Scientific Reports, 2017).
These are yes or no findings as the source states them, for the method shown. Some binding calls cover weakened binding; strength is not graded here. Tags and fused reporters may be left off the sequences shown. Each block holds one binder with its values, some of them ahead of it.

How the values were obtained:
[1] = target: T1, acetone carboxylase β subunit (AcxA) from Xanthobacter autotrophicus Py2, recombinant, His-tagged (Xanthobacter autotrophicus Py2) (UniProt Q8RM04); assay: crystal structure; recombinant AC (αβγ)2, ligand-free and AMP-bound; hanging drop, 25 °C, 14-18% PEG 3350, 0.2 M MgSO4, pH 6.3; nucleotide additives 5 mM; SAD with selenium; both purified
T1 sequence: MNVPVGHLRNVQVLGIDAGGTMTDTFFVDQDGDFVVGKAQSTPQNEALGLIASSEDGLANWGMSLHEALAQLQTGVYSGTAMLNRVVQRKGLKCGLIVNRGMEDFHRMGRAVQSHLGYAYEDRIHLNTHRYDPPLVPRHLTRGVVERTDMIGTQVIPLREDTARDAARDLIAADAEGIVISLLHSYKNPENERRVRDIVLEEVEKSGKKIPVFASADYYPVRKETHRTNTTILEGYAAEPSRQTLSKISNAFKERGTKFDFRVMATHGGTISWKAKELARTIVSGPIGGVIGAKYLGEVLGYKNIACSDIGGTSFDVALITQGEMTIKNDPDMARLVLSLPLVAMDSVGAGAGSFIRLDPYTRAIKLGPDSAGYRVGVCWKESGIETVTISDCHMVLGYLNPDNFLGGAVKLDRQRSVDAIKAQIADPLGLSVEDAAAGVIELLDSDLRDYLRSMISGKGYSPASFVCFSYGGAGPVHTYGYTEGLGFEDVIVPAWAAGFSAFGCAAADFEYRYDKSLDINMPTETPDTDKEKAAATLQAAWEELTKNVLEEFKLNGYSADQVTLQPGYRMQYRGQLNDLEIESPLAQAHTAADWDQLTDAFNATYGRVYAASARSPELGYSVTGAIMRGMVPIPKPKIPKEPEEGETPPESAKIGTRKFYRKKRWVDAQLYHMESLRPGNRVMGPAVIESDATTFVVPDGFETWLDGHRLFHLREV

[2] = target: T2, acetone carboxylase α subunit (AcxB) from Xanthobacter autotrophicus Py2, recombinant (Xanthobacter autotrophicus Py2) (UniProt Q8RM03); assay: as above
T2 sequence: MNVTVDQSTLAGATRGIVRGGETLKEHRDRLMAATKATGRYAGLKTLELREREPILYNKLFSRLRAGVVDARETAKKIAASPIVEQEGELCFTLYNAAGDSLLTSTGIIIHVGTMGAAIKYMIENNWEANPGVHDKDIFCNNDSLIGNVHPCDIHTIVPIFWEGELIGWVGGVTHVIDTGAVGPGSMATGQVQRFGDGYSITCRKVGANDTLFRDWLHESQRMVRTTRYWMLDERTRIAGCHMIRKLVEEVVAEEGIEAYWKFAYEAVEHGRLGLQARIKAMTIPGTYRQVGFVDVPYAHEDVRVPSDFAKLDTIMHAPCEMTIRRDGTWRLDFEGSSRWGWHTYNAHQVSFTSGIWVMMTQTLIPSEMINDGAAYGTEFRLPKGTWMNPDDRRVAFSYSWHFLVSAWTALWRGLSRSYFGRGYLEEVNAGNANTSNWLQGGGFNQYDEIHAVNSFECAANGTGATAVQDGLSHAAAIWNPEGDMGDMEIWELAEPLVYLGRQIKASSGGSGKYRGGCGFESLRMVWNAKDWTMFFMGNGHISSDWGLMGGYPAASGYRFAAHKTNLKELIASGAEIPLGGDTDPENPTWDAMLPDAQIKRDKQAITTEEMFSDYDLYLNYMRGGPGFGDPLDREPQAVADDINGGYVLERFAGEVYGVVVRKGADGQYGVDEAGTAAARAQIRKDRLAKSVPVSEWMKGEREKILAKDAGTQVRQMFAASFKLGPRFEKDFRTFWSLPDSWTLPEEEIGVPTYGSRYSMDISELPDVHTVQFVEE

binding [1]: binds | binding [2]: binds
B1: acetone carboxylase γ subunit (AcxC) from Xanthobacter autotrophicus Py2, recombinant (protein, UniProt Q8RM02 1-168)
chain: MAYTRSKIVDLVDGKIDPDTLHQMLSTPKDPERFVTYVEILQERMPWDDKIILPLGPKLFIVQQKVSKKWTVRCECGHDFCDWKDNWKLSARVHVRDTPQKMEEIYPRLMAPTPSWQVIREYFCPECGTLHDVEAPTPWYPVIHDFSPDIEGFYQEWLGLPVPERADA

binding [2]: binds
B2: acetone carboxylase β subunit (AcxA) from Xanthobacter autotrophicus Py2, recombinant, His-tagged (protein, UniProt Q8RM04 1-717)
chain: T1 sequence
